The record followed here is patent US8563513.

Protein sequences, listed by entry. Tags and fused reporters are not part of them. Residues count along the entry.
UniProt Q03431, residues 27-593: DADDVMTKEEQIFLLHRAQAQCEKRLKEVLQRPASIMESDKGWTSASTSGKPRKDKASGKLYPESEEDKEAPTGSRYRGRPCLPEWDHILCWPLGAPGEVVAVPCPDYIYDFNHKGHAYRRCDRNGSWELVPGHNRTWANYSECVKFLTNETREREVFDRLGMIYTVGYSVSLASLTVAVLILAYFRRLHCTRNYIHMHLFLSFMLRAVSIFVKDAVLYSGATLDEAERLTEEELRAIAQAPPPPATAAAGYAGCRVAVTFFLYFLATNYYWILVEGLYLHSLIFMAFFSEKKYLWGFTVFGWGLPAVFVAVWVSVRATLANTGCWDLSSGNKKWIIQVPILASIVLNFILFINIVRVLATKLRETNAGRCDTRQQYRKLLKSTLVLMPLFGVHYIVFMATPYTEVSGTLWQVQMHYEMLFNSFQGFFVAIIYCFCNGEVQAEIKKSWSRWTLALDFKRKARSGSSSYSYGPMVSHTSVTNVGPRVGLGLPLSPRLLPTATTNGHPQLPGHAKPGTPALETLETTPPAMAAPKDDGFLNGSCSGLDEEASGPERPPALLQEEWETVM

B1: PTH(1-34)NH2 [W23′F/V31′I] (peptide)
peptide: SVSEIQLMHNLGKHLNSMERVEFLRKKLQDIHNF
modifications: C-terminal amide
B2: PTHrP(1-34)NH2 [F23′W/L27′K/I28′L/I31′V] (peptide)
peptide: AVSEHQLLHDKGKSIQDLRRRFWLHHKLAEVHTA
modifications: C-terminal amide
B3: PTH(1-34)NH2 [W23F] (peptide)
peptide: SVSEIQLMHNLGKHLNSMERVEFLRKKLQDVHNF
modifications: C-terminal amide
B4: PTH(1-34)NH2 [W23F/K27L/L28I/V31I] (peptide)
peptide: SVSEIQLMHNLGKHLNSMERVEFLRKLIQDIHNF
modifications: C-terminal amide
B5: PTH(1-34)NH2 [V31I] (peptide)
peptide: SVSEIQLMHNLGKHLNSMERVEWLRKKLQDIHNF
modifications: C-terminal amide
B6: PTH(1-34)NH2 [L28I] (peptide)
peptide: SVSEIQLMHNLGKHLNSMERVEWLRKKIQDVHNF
modifications: C-terminal amide
B7: PTH(1-34)[K27L]NH2 (peptide)
peptide: SVSEIQLMHNLGKHLNSMERVEWLRKLLQDVHNF
modifications: C-terminal amide
B8: PTH(1-34)NH2 [K27L/V31I] (peptide)
peptide: SVSEIQLMHNLGKHLNSMERVEWLRKLLQDIHNF
modifications: C-terminal amide
B9: PTH(1-34)NH2 [L28I/V31I] (peptide)
peptide: SVSEIQLMHNLGKHLNSMERVEWLRKKIQDIHNF
modifications: C-terminal amide
B10: PTH(1-34)NH2 [W23F/K27L] (peptide)
peptide: SVSEIQLMHNLGKHLNSMERVEFLRKLLQDVHNF
modifications: C-terminal amide
B11: PTH(1-34)NH2 [W23F/L28I] (peptide)
peptide: SVSEIQLMHNLGKHLNSMERVEFLRKKIQDVHNF
modifications: C-terminal amide

These are yes or no findings as the source states them, for the method shown. Some binding calls cover weakened binding; strength is not graded here.

In the first assay the target is PTH1R in cell membranes, G protein-uncoupled conformation (R0) (UniProt Q03431). In words: competition binding, PTH1R in cell membranes, R0 state.
Regarding B1, the binding entry was “binds”.
With B2, the binding entry was “binds”.

For the next assay the target is unchanged. The assay is described as follows: competition binding on cell membranes, R0 state of PTH1R (GTPγS in the reaction); SB (%) against ligand concentration; tracer not named in the filing [R0 left panel].
With B3, the binding result is “binds”.
Take B4: the binding result is listed as “binds”.
Take B5: the binding entry is on record as “binds”.
For the molecule B6, the binding entry is “binds”.
For B7, the binding entry is given as “binds”.

A further assay has the same target. In words: competition binding on cell membranes, R0 state of PTH1R (GTPγS in the reaction); SB (%) against ligand concentration; tracer not named in the filing [R0 right panel].
With B8, the binding entry is “binds”.
On the same count and under the same terms, next, B9: “binds”; B10: “binds”.
The same measure, in the same setting: next, B1: “binds”; B11: “binds”; B2: “binds”.
